# Measured values taken from article PMC7819943, “Rice protein-binding microarrays: a tool to detect cis-acting elements near promoter regions in rice”.
# Chains of the proteins cited; added tags and fusions are not shown.
# UniProt Q0JBA9, entry or part of it: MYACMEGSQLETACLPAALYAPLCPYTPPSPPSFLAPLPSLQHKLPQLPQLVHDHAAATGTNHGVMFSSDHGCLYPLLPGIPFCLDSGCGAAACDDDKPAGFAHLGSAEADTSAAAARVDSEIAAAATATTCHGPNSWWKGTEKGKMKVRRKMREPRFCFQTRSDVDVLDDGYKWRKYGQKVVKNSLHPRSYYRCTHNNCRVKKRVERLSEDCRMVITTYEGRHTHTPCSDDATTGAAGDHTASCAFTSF
# The other results are listed elsewhere or left out.
# Biological target: OsWRKY34 (Oryza sativa, UniProt Q0JBA9 1-250)
# Experiment: protein-binding microarray (RPBM); PBS, 2% BSA, 51.3 ng/ul salmon testes DNA, 50 uM zinc acetate, 200 nM TF, 25 C, 1 h; high values mean tight binding
# Conditions: protein: recombinant; tags: N-terminal polyhistidine and DsRed monomer fusion (pET32a); label: CyDye5-dUTP incorporated in the synthesized complementary strand; 3' TTTTT single-stranded linker to array surface; dsDNA, one strand shown
# Outline: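 The binding signal is fluorescence intensity per array feature (arbitrary units). Readings came from an Axon 4000B scanner after a washed, 2% BSA-blocked, double-stranded custom Agilent array had been incubated for 1 h at 25 °C with 200 nM protein and 50 µM zinc acetate. The protein was a Ni–NTA-purified transcription factor fused N-terminally to polyhistidine and DsRed, expressed in E. coli BL21-CodonPlus.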
row,Sequence,binding signal
1,CGCCGCCTCCGCCCGCGCCGCCATCGCCGCCGTGTCTTCTCGGAGTCACCTAGTGCAG,8420 fluorescence intensity (a.u.)
2,TTGCCGCTCCCTGCTCTTCTCTTGTGTGAACTCGCGTTTTCGGAGTCACCTAGTGCAG,11000 fluorescence intensity (a.u.)
3,CCTTGGGCTGTTTTACCATGGTTTTTGCACACGTGGATGACGGAGTCACCTAGTGCAG,10100 fluorescence intensity (a.u.)
4,GGTTGTCGTCGTCGTCGTGGCCTACGCCTTCGCTGCTGCTCGGAGTCACCTAGTGCAG,10600 fluorescence intensity (a.u.)
5,TGTGGGTTTATTGTCCAACGTTTAACCGTTCATCTTATTTCGGAGTCACCTAGTGCAG,9400 fluorescence intensity (a.u.)
6,ATAGCAGTGGTGGGTAATTTACATAAATTTTTTAAGTGCACGGAGTCACCTAGTGCAG,11900 fluorescence intensity (a.u.)
7,TTCTTTTCGGTTTGGATCATCGCAAGCGATCTTTTCACTTCGGAGTCACCTAGTGCAG,10100 fluorescence intensity (a.u.)
8,GCCGCTACACTCGATCTACTCTCTCACACACTCCTCTGATCGGAGTCACCTAGTGCAG,8870 fluorescence intensity (a.u.)
9,ATCGATTCTCTTCATGTGATCTTCACGTGTCCGGCCAATTCGGAGTCACCTAGTGCAG,10100 fluorescence intensity (a.u.)
10,CGCACGCTCCCCGACTCCGACTCCGATCCTCTCTCACGCACGGAGTCACCTAGTGCAG,8440 fluorescence intensity (a.u.)
11,TTCCCTGACGGCCTATTGAAGAGCTGCCTAGACCACCGCCCGGAGTCACCTAGTGCAG,8290 fluorescence intensity (a.u.)
12,TCCGTTTCTTTTTTGTTTTTGTTTAGGAACAGCATGCTCGCGGAGTCACCTAGTGCAG,12400 fluorescence intensity (a.u.)
13,GTTGAGATTGCAATATTTTATATTTTCTTGTTTGCTTTCACGGAGTCACCTAGTGCAG,8140 fluorescence intensity (a.u.)
14,CTCTCTCTGCCATATCCTGTGCTTTTCTTGTATTCCATCCCGGAGTCACCTAGTGCAG,11400 fluorescence intensity (a.u.)
15,AAGGTTCATCGGACCCACGTGTCAGCTGATTGCTTATTCTCGGAGTCACCTAGTGCAG,8100 fluorescence intensity (a.u.)
16,GAGCTTTGCGCTGGGTGGGCTTGCATTTTTGGGTCTACCGCGGAGTCACCTAGTGCAG,21500 fluorescence intensity (a.u.)
17,TGCGTGCTGCTGCTTATTTACTGCCAGCTCTTTCTGCTAGCGGAGTCACCTAGTGCAG,8320 fluorescence intensity (a.u.)
18,ATTTTAATGGATTTCTGCAAACTTTTAGTAGTAGTAGTATCGGAGTCACCTAGTGCAG,8490 fluorescence intensity (a.u.)
19,ACCACCCAGCTCTCTCCACTCCACTCTCGCGTTCTTGTGGCGGAGTCACCTAGTGCAG,8680 fluorescence intensity (a.u.)
20,AGTGGGTGGTGGTGGTGGTGGTGGTGCGAGGCCGTCGCTGCGGAGTCACCTAGTGCAG,20500 fluorescence intensity (a.u.)
21,ATTTTCCTAGGTTCTTATACTTCTGGCTACCGCAAATTCCCGGAGTCACCTAGTGCAG,11800 fluorescence intensity (a.u.)

row,Sequence,binding signal
1,CAATCTCTCTCTCTCTCTCTCTCGCTGCTGCTGCTCCTTCCGGAGTCACCTAGTGCAG,9770 fluorescence intensity (a.u.)
2,TCAATGTGTGCGTGTGTGGCCTATCTTTTCTTACTCTCTTCGGAGTCACCTAGTGCAG,9410 fluorescence intensity (a.u.)
3,ACGCCGCCTTTTCGTCCCGGTGGATTTCTGCCTCCCTTTTCGGAGTCACCTAGTGCAG,8380 fluorescence intensity (a.u.)
4,TGTCGGCGCCATCCACCTCCGCCTCGTCCTCCTGTGCTTGCGGAGTCACCTAGTGCAG,9380 fluorescence intensity (a.u.)
5,ACTACTTCTGATCCCTCCAGTGTACGGGTTCCTCCAGCAGCGGAGTCACCTAGTGCAG,9590 fluorescence intensity (a.u.)
6,TATTTTGTATACCTATTTTCTTGGGCCATGCCTTATACGACGGAGTCACCTAGTGCAG,8650 fluorescence intensity (a.u.)
7,TTTTCGGGACTGGTTGCATCGGCTTGTCTTCATTGGATTTCGGAGTCACCTAGTGCAG,8680 fluorescence intensity (a.u.)
8,AATTTCAGTTCAATTTGCAGGTTTAAGCTGGTTATCCTTACGGAGTCACCTAGTGCAG,8200 fluorescence intensity (a.u.)
9,CTCTCTCTCTCTCTCTCTCTCCCACGAACGCGACGACTTCCGGAGTCACCTAGTGCAG,10100 fluorescence intensity (a.u.)
10,TCCTAACCCATCCAACTCATCTATATAAGCTCCAACCATTCGGAGTCACCTAGTGCAG,9930 fluorescence intensity (a.u.)
11,ATCCGTATATTATCAGTTGATTCATGATCTCATATTTAAACGGAGTCACCTAGTGCAG,8070 fluorescence intensity (a.u.)
12,TGTCGTCGTGGCATTGGATTGGGAGGGGCCATCGCTGCACCGGAGTCACCTAGTGCAG,8360 fluorescence intensity (a.u.)
13,GCCGCCACCATCCGCCTCTAGGGTTTCGGTTCCATGCGATCGGAGTCACCTAGTGCAG,8200 fluorescence intensity (a.u.)
14,AGGCCAACAGGTTATTAAGTTCTCATTGCACCTTGGTTCTCGGAGTCACCTAGTGCAG,8320 fluorescence intensity (a.u.)
15,TGGAATGTGCTAGTTTTGGCGCCCTTCGCTTGCTTCCTTGCGGAGTCACCTAGTGCAG,9510 fluorescence intensity (a.u.)
16,AGATATACTTCTTCTTGTCGCGCTGCTTACCGTTGATGCGCGGAGTCACCTAGTGCAG,9100 fluorescence intensity (a.u.)
17,ATATTTTCTAATACTTTACATTGTTTATACATTTTCCTTACGGAGTCACCTAGTGCAG,10100 fluorescence intensity (a.u.)
18,CCTACTCCTTTTTCTTTCGACGATTCTGCATTCTACACTTCGGAGTCACCTAGTGCAG,10100 fluorescence intensity (a.u.)
19,GGGCCATCTCCCTGATTCCTGAACAAACTACTCACACTGACGGAGTCACCTAGTGCAG,8200 fluorescence intensity (a.u.)
20,CCGAACCTATATAAAAATCTCTGTCTCCGTCTCTTTTACCCGGAGTCACCTAGTGCAG,8320 fluorescence intensity (a.u.)
21,ACACTCGCGCACTCGGCGGCGCCGCCGTCTTTGCCGTTGCCGGAGTCACCTAGTGCAG,11200 fluorescence intensity (a.u.)

# Look-ups from the entries so far.
# binding signal with CCTACTCCTTTTTCTTTCGACGATTCTGCATTCTACACTTCGGAGTCACCTAGTGCAG reads 10100 fluorescence intensity (a.u.)
# binding signal with ACTACTTCTGATCCCTCCAGTGTACGGGTTCCTCCAGCAGCGGAGTCACCTAGTGCAG reads 9590 fluorescence intensity (a.u.)
